At least one compound was matched to its structure with a doubt left.
System: MCF7-PalboR (resistant to palbociclib)
Assay: Proliferation inhibition, MCF7-PalboR
Format: cell-based
Settings: doses up to 5 mM
Method: Anti-proliferative activity was measured in cells treated for 7 days with PF-07104091 in OVCAR3 cells, Rb mutant NCI-H526 SCLC cells, and both HR-positive HER2-negative MCF7 and the subline MCF7-PalboR (resistant to palbociclib).
The MCF7-PalboR cell model is refractory to palbociclib-induced proliferative inhibition at doses up to […], which exceeds the concentration expected to inhibit CDK4 and CDK6.

`CC(=O)c1c(C)c2cnc(Nc3ccc(N4CCNCC4)cn3)nc2n(C2CCCC2)c1=O` [Palbociclib, palbociclib, reference compound] was tested, and the palbociclib-induced proliferative inhibition was “refractory”.
